This assay concerns the target GST-SUN2Nt (human) (UniProt Q9UH99). Briefly: affinity purification with mass spectrometry; GST-SUN2Nt on glutathione agarose beads incubated with total cell lysates (100,000 g supernatant) of control or EDMD/CMT human fibroblasts, 4 °C, 6 h; washed with PBS; 12% SDS-PAGE, Coomassie bands excised, LC-MS; done twice; only the target purified.

By UniProt entry, the sequences of proteins in these tests, tags left out. Residues count along the entry.
UniProt Q9UH99, residues 1-138: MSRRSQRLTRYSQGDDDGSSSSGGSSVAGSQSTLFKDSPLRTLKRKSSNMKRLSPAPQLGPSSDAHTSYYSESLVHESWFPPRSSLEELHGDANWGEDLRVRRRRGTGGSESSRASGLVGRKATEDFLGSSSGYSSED
UniProt P31943: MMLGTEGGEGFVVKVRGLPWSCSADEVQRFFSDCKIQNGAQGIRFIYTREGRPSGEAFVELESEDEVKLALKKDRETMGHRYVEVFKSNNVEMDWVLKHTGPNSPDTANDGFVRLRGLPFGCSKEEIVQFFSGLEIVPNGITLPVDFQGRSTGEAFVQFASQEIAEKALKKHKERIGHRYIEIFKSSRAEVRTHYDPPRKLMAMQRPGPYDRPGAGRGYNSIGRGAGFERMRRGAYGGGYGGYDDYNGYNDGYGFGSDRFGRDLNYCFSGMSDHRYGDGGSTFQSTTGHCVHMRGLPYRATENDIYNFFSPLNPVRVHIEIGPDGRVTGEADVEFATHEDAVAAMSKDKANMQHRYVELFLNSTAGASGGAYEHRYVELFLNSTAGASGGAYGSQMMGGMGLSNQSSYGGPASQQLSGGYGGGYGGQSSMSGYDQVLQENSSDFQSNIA
UniProt O00571: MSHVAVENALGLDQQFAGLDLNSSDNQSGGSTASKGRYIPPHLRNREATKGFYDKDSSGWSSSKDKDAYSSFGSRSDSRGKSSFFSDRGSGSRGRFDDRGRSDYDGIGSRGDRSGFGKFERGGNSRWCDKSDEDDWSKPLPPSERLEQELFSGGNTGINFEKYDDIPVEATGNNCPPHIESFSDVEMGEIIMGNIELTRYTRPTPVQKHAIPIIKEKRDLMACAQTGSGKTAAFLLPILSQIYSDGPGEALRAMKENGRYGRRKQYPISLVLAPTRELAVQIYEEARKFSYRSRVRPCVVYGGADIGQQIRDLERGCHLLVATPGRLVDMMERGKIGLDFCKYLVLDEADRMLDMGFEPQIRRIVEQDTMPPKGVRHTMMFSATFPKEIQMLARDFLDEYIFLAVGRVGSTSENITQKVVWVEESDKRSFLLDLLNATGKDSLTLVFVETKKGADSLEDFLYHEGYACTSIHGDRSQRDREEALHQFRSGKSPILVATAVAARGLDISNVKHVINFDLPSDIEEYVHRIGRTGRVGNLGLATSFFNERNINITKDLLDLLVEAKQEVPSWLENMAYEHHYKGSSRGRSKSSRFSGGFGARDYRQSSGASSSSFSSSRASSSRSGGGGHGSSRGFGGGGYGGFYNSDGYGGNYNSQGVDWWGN
UniProt P68104: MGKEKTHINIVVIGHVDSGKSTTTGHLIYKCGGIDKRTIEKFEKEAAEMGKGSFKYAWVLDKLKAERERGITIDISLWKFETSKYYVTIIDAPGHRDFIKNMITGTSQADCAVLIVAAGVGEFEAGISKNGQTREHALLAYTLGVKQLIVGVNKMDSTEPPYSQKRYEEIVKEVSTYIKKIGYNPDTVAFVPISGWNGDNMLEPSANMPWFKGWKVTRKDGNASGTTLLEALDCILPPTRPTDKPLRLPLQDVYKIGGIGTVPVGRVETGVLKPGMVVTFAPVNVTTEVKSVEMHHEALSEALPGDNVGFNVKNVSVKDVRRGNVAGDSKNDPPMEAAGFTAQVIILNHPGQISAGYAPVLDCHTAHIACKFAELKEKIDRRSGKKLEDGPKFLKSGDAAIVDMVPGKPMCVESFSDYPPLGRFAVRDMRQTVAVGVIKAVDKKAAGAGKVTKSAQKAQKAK
UniProt P53618: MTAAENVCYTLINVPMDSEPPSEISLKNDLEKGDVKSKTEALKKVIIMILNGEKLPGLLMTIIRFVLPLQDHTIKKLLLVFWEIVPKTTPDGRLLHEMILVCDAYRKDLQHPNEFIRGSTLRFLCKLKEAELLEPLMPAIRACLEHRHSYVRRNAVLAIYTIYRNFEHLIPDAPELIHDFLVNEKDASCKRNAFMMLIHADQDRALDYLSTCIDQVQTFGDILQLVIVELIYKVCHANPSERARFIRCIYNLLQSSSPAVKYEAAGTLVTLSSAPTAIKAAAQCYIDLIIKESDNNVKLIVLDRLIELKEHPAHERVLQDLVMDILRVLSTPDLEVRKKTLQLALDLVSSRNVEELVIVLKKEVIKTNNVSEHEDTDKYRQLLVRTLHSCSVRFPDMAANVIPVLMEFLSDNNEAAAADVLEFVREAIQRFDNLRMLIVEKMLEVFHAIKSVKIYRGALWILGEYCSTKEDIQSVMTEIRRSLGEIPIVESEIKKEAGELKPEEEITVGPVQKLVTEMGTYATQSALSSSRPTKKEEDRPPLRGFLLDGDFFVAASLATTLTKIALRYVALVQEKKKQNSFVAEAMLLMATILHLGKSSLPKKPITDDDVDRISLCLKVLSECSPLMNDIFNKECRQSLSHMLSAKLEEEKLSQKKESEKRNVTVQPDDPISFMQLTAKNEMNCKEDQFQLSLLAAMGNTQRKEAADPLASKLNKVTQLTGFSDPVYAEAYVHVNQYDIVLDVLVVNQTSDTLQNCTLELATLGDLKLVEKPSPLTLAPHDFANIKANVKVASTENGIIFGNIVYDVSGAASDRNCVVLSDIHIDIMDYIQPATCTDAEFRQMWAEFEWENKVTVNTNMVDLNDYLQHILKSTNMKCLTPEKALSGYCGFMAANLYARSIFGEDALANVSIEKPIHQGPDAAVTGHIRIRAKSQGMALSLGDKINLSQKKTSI
UniProt P22314: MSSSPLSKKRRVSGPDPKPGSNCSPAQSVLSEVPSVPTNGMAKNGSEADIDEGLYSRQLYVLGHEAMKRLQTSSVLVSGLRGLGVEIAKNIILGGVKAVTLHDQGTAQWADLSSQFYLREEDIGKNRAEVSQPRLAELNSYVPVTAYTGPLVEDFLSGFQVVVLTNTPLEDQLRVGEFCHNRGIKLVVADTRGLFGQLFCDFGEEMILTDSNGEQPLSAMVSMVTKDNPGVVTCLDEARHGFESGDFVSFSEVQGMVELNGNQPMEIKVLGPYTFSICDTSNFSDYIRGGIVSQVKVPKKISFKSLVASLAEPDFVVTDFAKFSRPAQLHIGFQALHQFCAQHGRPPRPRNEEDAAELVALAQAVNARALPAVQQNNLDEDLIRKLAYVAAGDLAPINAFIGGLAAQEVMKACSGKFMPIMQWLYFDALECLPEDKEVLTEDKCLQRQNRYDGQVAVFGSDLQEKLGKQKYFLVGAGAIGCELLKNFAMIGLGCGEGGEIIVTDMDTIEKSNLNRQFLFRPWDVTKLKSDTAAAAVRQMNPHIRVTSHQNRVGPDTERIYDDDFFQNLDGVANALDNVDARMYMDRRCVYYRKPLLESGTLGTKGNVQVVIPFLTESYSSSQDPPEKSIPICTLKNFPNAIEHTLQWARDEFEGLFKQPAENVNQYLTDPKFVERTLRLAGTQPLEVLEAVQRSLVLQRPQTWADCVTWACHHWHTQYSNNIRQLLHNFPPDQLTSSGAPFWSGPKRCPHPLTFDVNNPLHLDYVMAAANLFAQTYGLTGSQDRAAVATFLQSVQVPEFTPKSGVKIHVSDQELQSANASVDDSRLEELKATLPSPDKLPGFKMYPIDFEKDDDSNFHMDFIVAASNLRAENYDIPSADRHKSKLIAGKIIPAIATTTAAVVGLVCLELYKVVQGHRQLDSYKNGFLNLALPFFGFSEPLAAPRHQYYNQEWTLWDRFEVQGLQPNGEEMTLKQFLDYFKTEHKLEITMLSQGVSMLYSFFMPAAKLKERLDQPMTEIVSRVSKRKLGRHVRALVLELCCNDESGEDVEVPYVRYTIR
UniProt Q9ULV4: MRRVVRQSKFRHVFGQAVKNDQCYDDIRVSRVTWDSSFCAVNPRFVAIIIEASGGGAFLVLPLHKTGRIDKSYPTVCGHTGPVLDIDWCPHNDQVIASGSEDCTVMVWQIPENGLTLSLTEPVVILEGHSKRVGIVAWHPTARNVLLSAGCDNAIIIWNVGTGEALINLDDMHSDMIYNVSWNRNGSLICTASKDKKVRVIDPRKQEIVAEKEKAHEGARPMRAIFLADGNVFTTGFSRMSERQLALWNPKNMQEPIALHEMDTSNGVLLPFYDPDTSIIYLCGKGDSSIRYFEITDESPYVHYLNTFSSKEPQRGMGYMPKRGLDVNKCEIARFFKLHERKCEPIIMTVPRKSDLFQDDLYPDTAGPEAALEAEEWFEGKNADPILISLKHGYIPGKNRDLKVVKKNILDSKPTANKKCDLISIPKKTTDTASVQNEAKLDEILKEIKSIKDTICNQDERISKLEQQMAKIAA
UniProt Q9UHB6: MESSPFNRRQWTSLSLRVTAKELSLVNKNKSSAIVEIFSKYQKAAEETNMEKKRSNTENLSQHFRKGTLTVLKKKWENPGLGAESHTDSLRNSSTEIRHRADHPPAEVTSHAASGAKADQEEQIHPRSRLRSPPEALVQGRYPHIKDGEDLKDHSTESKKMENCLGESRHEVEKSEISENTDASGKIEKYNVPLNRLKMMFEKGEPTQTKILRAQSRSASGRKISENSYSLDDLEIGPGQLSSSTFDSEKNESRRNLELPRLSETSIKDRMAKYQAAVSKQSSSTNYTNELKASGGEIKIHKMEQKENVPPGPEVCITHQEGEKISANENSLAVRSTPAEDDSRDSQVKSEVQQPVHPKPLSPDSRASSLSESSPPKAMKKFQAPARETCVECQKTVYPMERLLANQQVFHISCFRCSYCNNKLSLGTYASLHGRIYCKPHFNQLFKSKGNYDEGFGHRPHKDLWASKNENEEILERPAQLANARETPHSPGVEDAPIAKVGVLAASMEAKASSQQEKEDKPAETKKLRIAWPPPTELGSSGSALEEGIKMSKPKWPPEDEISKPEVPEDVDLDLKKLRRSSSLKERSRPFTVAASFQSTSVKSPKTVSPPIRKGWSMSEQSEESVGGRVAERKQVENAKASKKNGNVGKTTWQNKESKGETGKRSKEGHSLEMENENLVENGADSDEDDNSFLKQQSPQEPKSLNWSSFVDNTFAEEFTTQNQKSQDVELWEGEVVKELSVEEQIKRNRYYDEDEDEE
UniProt P60842: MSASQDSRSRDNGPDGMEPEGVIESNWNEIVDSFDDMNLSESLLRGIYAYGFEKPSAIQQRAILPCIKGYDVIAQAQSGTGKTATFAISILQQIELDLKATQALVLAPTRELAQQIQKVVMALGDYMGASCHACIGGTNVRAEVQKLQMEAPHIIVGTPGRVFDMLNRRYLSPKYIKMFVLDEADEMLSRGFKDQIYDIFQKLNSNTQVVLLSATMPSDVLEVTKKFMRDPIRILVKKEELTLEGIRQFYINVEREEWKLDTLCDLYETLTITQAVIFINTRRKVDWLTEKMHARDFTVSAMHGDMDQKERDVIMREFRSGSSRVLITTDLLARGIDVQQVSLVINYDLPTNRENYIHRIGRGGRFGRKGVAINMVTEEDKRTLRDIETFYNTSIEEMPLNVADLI

Results are given in words; binding and its absence hold for the method and conditions named. Binding seen in cells or lysates may run through a third protein. These calls come from enrichment with a bait or labelling near it, and not all partners need be listed.

As for Myosin9 (from UniProt P35579 1-1960), the binding entry is “binds”.

HNRNPH1 (from UniProt P31943 1-449): the binding result is “binds”.

In the case of “mRNA helicase 3X (from UniProt O00571 1-662)”, the binding result is recorded as “binds”.

Take EF1A1 (from UniProt P68104 1-462): the binding entry is reported as “binds”.

On to titin (from UniProt Q8WZ42 1-34350), for which the binding result is on record as “binds”.

For Coatomer β (from UniProt P53618 1-953), the binding entry was “binds”.

For “Ubiquitin-like modifier-activating enzyme (from UniProt P22314 1-1058)”, the binding result is on record as “binds”.

Turning to Coronin1C (from UniProt Q9ULV4 1-474), the binding entry is recorded as “binds”.

For the molecule LIMA1 (from UniProt Q9UHB6 1-759), the binding entry is reported as “binds”.

eIF4A-1 (from UniProt P60842 1-406): the binding entry is given as “binds”.

B1: coiled coil domain containing protein 87 (CCDC87) (protein, UniProt Q9NVE4 1-849)
chain: MMEPPKPEPELQRFYHRLLRPLSLFPTRTTSPEPQKRPPQEGRILQSFPLAKLTVASLCSQVAKLLAGSGIAAGVPPEARLRLIKVILDELKCSWREPPAELSLSHKNNQKLRKRLEAYVLLSSEQLFLRYLHLLVTMSTPRGVFTESATLTRLAASLARDCTLFLTSPNVYRGLLADFQALLRAEQASGDVDKLHPVCPAGTFKLCPIPWPHSTGFAQVQCSNLNLNYLIQLSRPPEFLNEPGRMDPVKELKSIPRLKRKKPFHWLPSIGKKREIDISSSQMVSLPSYPVAPTSRASPSPFCPELRRGQSMPSLREGWRLADELGLPPLPSRPLTPLVLATESKPELTGLIVAEDLKQLIKKMKLEGTRYPPLDSGLPPLLGVVTRHPAAGHRLEELEKMLRNLQEEEASGQWDPQPPKSFPLHPQPVTITLKLRNEVVVQAAAVRVSDRNFLDSFHIEGAGALYNHLAGELDPKAIEKMDIDNFVGSTTREVYKELMSHVSSDHLHFDQGPLVEPAADKDWSTFLSSAFLRQEKQPQIINPELVGLYSQRANTLQSNTKKMPSLPSLQATKSWEKWSNKASLMNSWKTTLSVDDYFKYLTNHETDFLHVIFQMHEEEVPVEIVAPARESLEIQHPPPLLEDEEPDFVPGEWDWNTVLEHRLGAGKTPHLGEPHKILSLQKHLEQLWSVLEVPDKDQVDMTIKYSSKARLRQLPSLVNAWERALKPIQLREALLARLEWFEGQASNPNRFFKKTNLSSSHFLEENQVRSHLHRKLNLMESSLVSLLEEIELIFGEPVIFKGRPYLDKMKSDKVEMLYWLQQQRRVRHLVSALKDPHQSTLFRSSAASL
As for B1, the binding entry was “binds”.

B2: EIF1AD (protein, UniProt Q8N9N8 1-165)
chain: MSQATKRKHVVKEVLGEHIVPSDQQQIVRVLRTPGNNLHEVETAQGQRFLVSMPSKYRKNIWIKRGDFLIVDPIEEGEKVKAEISFVLCKDHVRSLQKEGFWPEAFSEVAEKHNNRNRQTQPELPAEPQLSGEESSSEDDSDLFVNTNRRQYHESEEESEEEEAA
In the case of B2, the binding result is “binds”.

These data come from publication PMC3778752.
